Experimental data published in paper PMC8832971.
No constants are given. Whether binding was seen depends on the method and setting. Binding seen in cells or lysates may run through a third protein. Binding calls can cover weak binding; strength is not graded here.

Amino acid sequences for entries named in this document (tags omitted). A change or cut given only in a name is not applied to a line headed by its entry.
UniProt A0A097IIB1: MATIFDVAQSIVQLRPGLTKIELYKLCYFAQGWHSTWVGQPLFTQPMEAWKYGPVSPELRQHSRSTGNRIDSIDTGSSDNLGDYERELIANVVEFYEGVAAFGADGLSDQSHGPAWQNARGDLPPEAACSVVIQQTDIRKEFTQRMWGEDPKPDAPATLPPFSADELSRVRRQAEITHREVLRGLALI
UniProt A0ABR4RQ49: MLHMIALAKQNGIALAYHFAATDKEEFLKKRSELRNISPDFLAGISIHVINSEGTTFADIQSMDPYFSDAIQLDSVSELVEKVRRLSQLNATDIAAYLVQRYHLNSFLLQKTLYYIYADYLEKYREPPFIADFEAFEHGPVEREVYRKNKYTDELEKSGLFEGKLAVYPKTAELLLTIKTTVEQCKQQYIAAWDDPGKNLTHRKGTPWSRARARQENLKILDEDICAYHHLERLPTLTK
UniProt A0ABM5XX51: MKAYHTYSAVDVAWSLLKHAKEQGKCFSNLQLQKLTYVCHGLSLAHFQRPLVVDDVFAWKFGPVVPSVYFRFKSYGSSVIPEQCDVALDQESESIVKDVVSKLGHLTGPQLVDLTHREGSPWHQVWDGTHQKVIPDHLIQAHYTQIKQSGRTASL

Columns and labels:
Test in all cases: pull-down; untagged PanA coexpressed with N-terminally His6- or His10-SUMO-tagged cognate PanT in E. coli BL21 DE3; filtered lysate incubated 30 min with Ni-beads in 25 mM Hepes pH 7.5, 300 mM NaCl, 10 mM imidazole, 2 mM CaCl2, 2 mM β-ME; eluted with 300 mM imidazole; 15% SDS-PAGE, stained
[1] = target: Corynebacterium doosanense Fic/Doc toxin (Corynebacterium doosanense)
[2] = target: Lactobacillus animalis PhRel2 toxSAS toxin (Lactobacillus animalis)
[3] = target: Vibrio harveyi CapRel toxSAS toxin (Vibrio harveyi)

Which binding [1] does the source give for “Corynebacterium doosanense PanA antitoxin (from UniProt A0A097IIB1)” here?
Its binding is “binds”.

Which binding [2] does the source give for “Lactobacillus animalis PanA antitoxin (from UniProt A0ABR4RQ49)” here?
The binding was “binds”.

“Vibrio harveyi PanA antitoxin (from UniProt A0ABM5XX51)” was tested. Which binding [3] did it give?
The binding was “binds”.
